Assay results taken from US20150335565A1, “IRRITATION MITIGATING POLYMERS AND USES THEREFOR” (LUBRIZOL ADVANCED MATERIALS, INC., priority 2012, published 2015).
“And” between values parts separate entries of the source, which are not always exact repeats. Identical values can stand only once.

System: Epiderm™ Human Tissue Model (EPI-200)
Experiment: MTT tissue viability assay (ET-50 protocol) for skin irritancy
Conditions: for Ave. (OD): 570 nm; for OD (570 nm): single test well (Rep), sulfate
Method: Mitigation of skin irritancy induced by sodium dodecyl sulfate (SDS) surfactant dosed with the polymer of Example 56 is assessed in the Epiderm™ Human Tissue Model (EPI-200) bioassay conducted by MatTek Corporation, Ashland, Mass. The MatTek bioassay utilizes human derived epidermal keratinocytes (NHEK) which have been cultured to form a multilayered, highly differentiated model of the human epidermis.
The MTT tissue viability assay measures the NAD(P)H dependent microsomal enzyme reduction of MTT (and to a lesser extent, the succinate dehydrogenase reduction of MTT) after exposure to a treated skin culture test sample for various exposure times. The duration of exposure resulting in a 50% decrease in MTT conversion in test formulation treated EpiDerm™ cultures, relative to control cultures, is determined (ET-50).
A SDS surfactant/polymer test formulation is formulated from the components set forth in Table 10 and evaluated for irritancy potential using the MTT viability assay. Test samples containing neat SDS surfactant (no polymer) are formulated for comparative purposes.
Skin tissue culture inserts (Cat. No. EPI-200) are pre-incubated in the wells of 6-well plates containing 0.9 ml of MatTek assay medium (Cat. No. EPI-100-ASY) for 1 hr. at 37° C. in a humidified atmosphere of 5% CO2 in air. The 6-well plates containing the tissue culture inserts are removed from the incubator and the assay media is aspirated from the wells and replaced by an additional aliquot of 0.9 ml of pre-warmed (37° C.) assay media. For each exposure time wells are then dosed (2 repetitions) with 100 μl of the test formulations set forth in Table 10 (3 tissue culture wells are dosed with 100 μl ultra-pure water as a negative control for each of the test candidates). In addition, 100 μl of a positive control formulation (1% Triton X-100 in ultrapure water) is dosed into tissue culture wells (3 repetitions for each exposure time), as well as 3 repetitions of ultrapure water as a negative control. The exposure times of the test formulations, negative control and positive control are set forth below.
MTT assay plates are prepped by preparing a 24-well plate by adding 300 μl of MTT reagent solution to an appropriate number of wells to accommodate the test. The MTT reagent is utilized at a concentration of 1 mg/ml of MTT diluted in Dulbecco's Modified Eagle Medium (DMEM). The MTT/DMEM solution is centrifuged and decanted to remove any precipitate before use.
After exposure times of 60 (1 hr.), 120 (2 hrs.) and 210 (3.5 hrs.) minutes to the test solutions, the tissue cultures are removed from the incubator and thoroughly rinsed (2 times) with Dulbecco's phosphate buffered saline (DPBS) to remove the test material. The negative control is exposed for 4 hours and the positive control is exposed for time periods of 4, 6, 8, and 10 hours. Any remaining rinse media is decanted from the top of the tissue cultures. Each tissue culture insert is transferred to an appropriately labeled well of the 24-well plate containing the MTT reagent solution and placed back in the incubator. After 30 minutes reaction with the MTT reagent, the tissue cultures are removed from the incubator. Each tissue culture insert is removed from its well and the bottom is gently blotted with a lab tissue. The inserts are immersed into a labeled 24-well extraction plate containing 2 ml of isopropanol extractant solution. The 24-well extraction plate is covered with aluminum foil (to protect the samples from light) and placed into a sealable plastic bag to minimize evaporation of the extractant solution. The sealed 24-well extraction plate is set on an orbital shaker and gently shaken for 2 hours at ambient room temperature (approximately 20° C.).
Upon the conclusion of the extraction period, the extractant liquid within each tissue culture insert is decanted back into the well from which it was taken and thoroughly mixed with the extractant solution contained in the well.

**Q.** What does the source list for CCCCCCCCCCCCOS(=O)(=O)[O-].[Na+] [Neat Surfactant, sodium dodecyl sulfate]?
**A.** Ave. (OD) (exposure time 1 hr): 0.733; Ave. (OD) (exposure time 2 hr): 0.285; Ave. (OD) (exposure time 3.5 hr): 0.200; OD (570 nm) (exposure time 1 hr): 0.647 and 0.818; OD (570 nm) (exposure time 2 hr): 0.322 and 0.248; OD (570 nm) (exposure time 3.5 hr): 0.179 and 0.221
